{
  "source": "paper PMC2225441",
  "about": "“Partial Restoration of Mutant Enzyme Homeostasis in Three Distinct Lysosomal Storage Disease Cell Lines by Altering Calcium Homeostasis” (PLoS Biology, 2008)",
  "system": "L444P GC",
  "assay": "intact cell GC activity assay in homozygous L444P GC patient-derived fibroblasts",
  "type": "cell-based, human",
  "conditions": "only the named compounds increased activity",
  "data": [
    {"smiles": "COC(=O)C1=C(C)NC(C)=C(C(=O)OC)C1c1ccccc1[N+](=O)[O-]", "note": "[nifedipine]", "values": [
      {"measurement": "L444P GC activity, screen of VGCC blockers, ionotropic glutamate receptor inhibitors and other calcium channel blockers", "value": "only diltiazem and verapamil"}
    ]}
  ]
}
